The target of the test is p21-GFP WT (endogenous p21 tagged with GFP in RPE-1 cells) (human (endogenous in RPE-1)), P38936. Description: pull-down. The following applies: remark: other sources report otherwise.

Results are given in words; binding and its absence hold for the method and conditions named. In cells and extracts the contact can be indirect. Some results given as binding are weak or reduced against the parent protein; the word gives no strength.

B1: CDK4, P11802 1-303 (enzyme)
chain: MATSRYEPVAEIGVGAYGTVYKARDPHSGHFVALKSVRVPNGGGGGGGLPISTVREVALLRRLEAFEHPNVVRLMDVCATSRTDREIKVTLVFEHVDQDLRTYLDKAPPPGLPAETIKDLMRQFLRGLDFLHANCIVHRDLKPENILVTSGGTVKLADFGLARIYSYQMALTPVVVTLWYRAPEVLLQSTYATPVDMWSVGCIFAEMFRRKPLFCGNSEADQLGKIFDLIGLPPEDDWPRDVSLPRGAFPPRGPRPVQSVVPEMEESGAQLLLEMLTFNPHKRISAFRALQHSYLHKDEGNPE
Turning to B1, the binding entry was “binds”.

For the origin of these results see doi:10.1101/2024.09.14.613007.
